According to patent US20250353924A1 (CITY OF HOPE, published 2025):
These are yes or no findings as the source states them, for the method shown. Some results given as binding are weak or reduced against the parent protein; the word gives no strength.

T1: CD84 (soluble protein used for the 8A5-CD84 crystal structure, FPLC co-elution and SPR) (human) (UniProt Q9UIB8)
T1 sequence (looked up): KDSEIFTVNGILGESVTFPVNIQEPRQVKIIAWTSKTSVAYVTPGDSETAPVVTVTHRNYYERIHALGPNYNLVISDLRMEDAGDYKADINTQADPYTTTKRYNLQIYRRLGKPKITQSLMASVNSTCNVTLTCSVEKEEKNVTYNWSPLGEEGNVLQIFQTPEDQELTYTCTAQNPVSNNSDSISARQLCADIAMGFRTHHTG


How the values were obtained:
[1] = biological target: T1, CD84 (soluble protein used for the 8A5-CD84 crystal structure, FPLC co-elution and SPR) (human); experiment: FPLC size exclusion co-elution of Fab and CD84
[2] = biological target: T1, CD84 (soluble protein used for the 8A5-CD84 crystal structure, FPLC co-elution and SPR) (human); experiment: SPR, anti-HIS antibodies immobilized, Fabs injected at 300, 100, 30 and 10 nM at 25° C.

| binding [1] | binding [2] | Binder |
| --- | --- | --- |
| binds | binds | chimeric anti-CD84 Fab of clone 5C6 (Fab, V domains shown) VH: QVHLQQSGAELVRPGTSVKISCKASGYTFTNYWLGWVKQRPGHGLEWIGDIFPGGGYINYHEKFKGKATLTADTSSSTAYMQLSSLTSEDSAVYFCGYGNIAMDYWGQGTSVTVSS VL: QIILTQTPAIMSASPGEKVTMTCSASSSVSYVHWYQQKSGTSPKRWIYDTSKLASGVPARFSGSGSGTSYSLTISTMEAEDAATYYCQQWNNSPRTFGGGTKLEIKR |
| binds | binds | chimeric anti-CD84 Fab of clone 7D2 (Fab, V domains shown) VH: QVHLQQSGAELVRPGTSVKISCKASGYTFTNYWLGWVKQRPGHGLEWIGDIFPGGGYINYHEKFKGKATLTADTSSSTAYMQLSSLTSEDSAVYFCAYGNVAMDYWGQGTSVTVSS VL: QIILTQTPAIMSASPGEKVTVTCSASSSVSYVHWYQQKSGTSPKRWIYDTSKLASGVPARFSGSGSGTSYSLTISTMEAEDAATYYCQQWNNSPRTFGGGTKLEIKR |
